# Measurements published in PubChem BioAssay AID540276 (National Center for Advancing Translational Sciences (NCATS), 2011).
# Where “and” joins values, the source holds several entries; their conditions need not be identical. Equal entries are not always repeated. Out of some 300,000 compounds screened, about 5,400 (1.8%) were called active. The shares of active, inactive and inconclusive entries below differ from those in the screen. The call rests on the fitted dose curve; tested in HEK293 cells. A potency beside an inconclusive call is a rough fit, not a confirmed value.
# Assay: qHTS for inhibitors of binding or entry into cells for Marburg Virus
# Details: Marburg virus pseudotyped entry inhibition, cell reporter; activity change, negative = inhibition: at 37.8 µM (top of the series) unless noted
# On the % scale 0 is the no-effect control and ±100 the full control effect; potency means the concentration at half of the fitted maximal effect.
SMILES,"activity change, negative = inhibition",Potency
Cc1ccc(NC(=O)c2cc(N3C(=O)C4CC=CCC4C3=O)ccc2N2CCOCC2)cc1Cl (stereo not drawn),inactive: -3.49%,–
Cc1ccc(C)c(COC(=O)c2cc([N+](=O)[O-])ccc2N2CCOCC2)c1,–,"inconclusive: 14.1 µM [inhibitor, partial curve, poor fit]"
CCCC(=O)NCCCc1nc2ccccc2n1CCC,–,"inconclusive: 16.4 µM [activator, single point]"
CCC(=O)NCc1cc(-c2nn(C)c(=O)c3ccccc23)ccc1C,inactive: 0.495%,–
COc1cc(OC)c(OC)cc1/C=N/NC(=O)CC1C(=O)NN=C1C (stereo not drawn),–,"inconclusive: 35.5 µM [activator, single point]"
Nc1cc(=O)[nH]c(=S)n1-c1ccccc1,inactive: 2.66%,–
CCn1ncc([N+](=O)[O-])c1C(=O)n1nc(C)cc1C,–,"inconclusive: 2.24 µM [activator, partial curve, poor fit]"
COc1ccc(NC(=O)CC2C(=O)N(c3ccc(C)cc3)C(=O)N2Cc2ccc3c(c2)OCO3)cc1 (stereo not drawn),inactive: -21.5% [at 46.1 µM],–
CCOC(=O)c1ccc(NC(=O)CSc2nnc(CNC(=O)c3ccc(OC)cc3)n2CC)cc1,–,"inconclusive: 12.6 µM [inhibitor, single point]"
COc1ccc(CCN(C)Cc2ccc(C(=O)Nc3ccccc3)cc2)cc1OC,–,"inconclusive: 20 µM [inhibitor, partial curve, poor fit]"
Cc1ccc(-c2nc3cc(NC(=O)C(C)C)ccc3o2)cc1,–,"inconclusive: 11.2 µM [inhibitor, single point]"
O=S(=O)(/C=C/c1ccccc1)N1CCN(c2ccccc2)CC1,–,"inconclusive: 2.51 µM [activator, single point]"
CCOC(=O)c1sc(NC(=O)c2ccc(S(=O)(=O)N3CCCCCC3)cc2)nc1-c1ccccc1,–,"inconclusive: 17.8 µM [inhibitor, single point]"
O=C(NC1(C(F)(F)F)N=C(c2ccccc2)NC1=O)c1ccc(Cl)cc1Cl (stereo not drawn),–,"inconclusive: 29.1 µM [inhibitor, partial curve, poor fit]"
Cc1ccc(/C(N)=N/OC(=O)c2cccc(F)c2)cc1,inactive: 13.6%,–
Cc1nn(C)cc1C(=O)Nc1c(C)nn(Cc2ccccc2Cl)c1C,–,"inconclusive: 35.5 µM [activator, single point]"
Cc1ccccc1OCCCn1c(-c2ccc(Cl)cc2)nc2ccccc2c1=O,inactive: 13.6% [at 46.1 µM],–
Cc1cc(C)n2nc(C)c(Br)c2n1,–,"inconclusive: 2.82 µM [inhibitor, single point]"
Nc1ccccc1NC(=O)c1ccccc1N,–,"inconclusive: 29.1 µM [activator, single point]"
CCCCN(C)CCNC(=O)c1ccc2c(c1)NC(=O)C(N1CCCCC1)S2 (stereo not drawn),–,"inconclusive: 3.16 µM [inhibitor, partial curve, poor fit]"
CC(=O)C1=C(O)C(=O)N(CCCN2CCOCC2)C1c1ccccc1[N+](=O)[O-] (stereo not drawn),–,"inconclusive: 25.1 µM [activator, partial curve, poor fit]"
CC1CCCCN1C(=O)Cn1nnc(-c2cccnc2)n1 (stereo not drawn),inactive: 7.22%,–
CCCOc1ccc(C(=O)N2CC3(CC(c4cccc(NC(=O)[C@@H]5CCC(=O)N5)c4)=NO3)C[C@H]2C(=O)NC2(C(N)=O)CC2)cc1 (stereo partly drawn),inactive: -0.338%,–

# Entries of single compounds from above:
# `CC1CCCCN1C(=O)Cn1nnc(-c2cccnc2)n1` (stereo not drawn) is listed as activity change, negative = inhibition: inactive: 7.22%
# `Cc1ccccc1OCCCn1c(-c2ccc(Cl)cc2)nc2ccccc2c1=O` is listed as activity change, negative = inhibition: inactive: 13.6% [at 46.1 µM]
# `Nc1ccccc1NC(=O)c1ccccc1N` is listed as Potency: inconclusive: 29.1 µM [activator, single point]
# `Cc1ccc(/C(N)=N/OC(=O)c2cccc(F)c2)cc1` is listed as activity change, negative = inhibition: inactive: 13.6%

# (listing goes on)

SMILES,"activity change, negative = inhibition",Potency
CCOc1ccc(NC(=O)COC(=O)c2ccc3ncsc3c2)cc1OCC,–,"inconclusive: 1.26 µM [inhibitor, single point]"
CSc1ccc(CNC(=O)C2CCN(c3nnc(-n4cccc4CNc4ccc(C)cc4)s3)CC2)cc1,inactive: -8.06% [at 46.1 µM],–
CCOC(=O)c1ccccc1OCc1cc(/C=N/NC(=O)c2ccncc2)ccc1OC,–,"inconclusive: 22.4 µM [inhibitor, single point]"
CC(C)c1nc(SCC(=O)N2CC(=O)Nc3ccccc32)c2ccccc2n1,–,"inconclusive: 4.47 µM [inhibitor, full curve]"
COc1ccc(OC)c(CCNC(=O)C2CCN(c3ncnc4c3nc3n4CCCCC3)CC2)c1,–,inactive
COc1ccc(CC(=O)N2CCC(c3ccccc3)C2)cc1 (stereo not drawn),inactive: 5.33% [at 46.1 µM],–
CCc1ccc(-n2nc(C)c3c2NC(=O)CSC3c2ccc(OC)cc2OC)cc1 (stereo not drawn),–,"inconclusive: 35.5 µM [inhibitor, single point]"
COc1cccc(/C=C/C(=O)c2cccc([N+](=O)[O-])c2)c1,–,"inconclusive: 10 µM [inhibitor, single point]"
CCCCNS(=O)(=O)c1ccc(NC(=O)Cc2ccc(OC)cc2)cc1,–,"inconclusive: 6.31 µM [inhibitor, single point]"
Nc1c(N=Nc2ccccc2F)c(=O)[nH]n1-c1ccccc1,–,"inconclusive: 35.5 µM [inhibitor, single point]"
NC(=O)CSCc1c(Cl)cccc1Cl,inactive: 22.1%,–
CNCCC[C@]12CC[C@H](C3=C1CCCC3)C1CCCCC12 (stereo partly drawn),–,active: 4.61 µM
COc1ccc(OC)c(Cc2nnc(CCC(=O)N3CCC(N4CCCCC4)CC3)o2)c1,–,"inconclusive: 2.51 µM [inhibitor, partial curve, poor fit]"
CCOc1ccc(C(=O)NC(C)C2COc3ccccc3O2)cc1 (stereo not drawn),inactive: 4.94% [at 46.1 µM],–
O=S(=O)(Nc1cccc2cccnc12)c1ccccc1,–,"inconclusive: 35.5 µM [inhibitor, single point]"
COc1ccc(-c2noc(CSc3nnc(-c4ccncc4)n3-c3ccc(F)cc3)n2)cc1OC,–,"inconclusive: 16.4 µM [inhibitor, single point]"
COc1ccc(-c2c(C(C)=O)c(C)nc3sc4c(=O)[nH]nnc4c23)cc1,–,"inconclusive: 5.62 µM [activator, single point]"
CC(C)c1ccc(NC(=O)c2ccc3c(c2)CCCN3S(C)(=O)=O)cc1,–,"inconclusive: 14.1 µM [inhibitor, single point]"
CC(=O)Nc1cccc(C(=O)NCCc2ccco2)c1,inactive: -4.38% [at 46.1 µM],–
CC(C)(C)C1CCc2c(sc(NC(=O)C3CCCO3)c2C(N)=O)C1 (stereo not drawn),–,"inconclusive: 22.4 µM [inhibitor, single point]"
O=C(Nc1nc2ccc(Cl)cc2s1)c1ccc(Br)o1,–,"inconclusive: 0.447 µM [activator, single point]"
CC(Sc1nnc(COc2ccccc2)n1Cc1ccccc1)C(=O)O (stereo not drawn),–,"inconclusive: 1.26 µM [inhibitor, partial curve, poor fit]"
Cc1cccc2c(=O)c(-c3ccc4c(c3)OCO4)c(NC(=O)c3ccco3)oc12,–,"inconclusive: 6.31 µM [inhibitor, single point]"

SMILES,"activity change, negative = inhibition",Potency
CCOC(=O)c1ccc(NC(=S)NCC(O)c2ccccc2)cc1 (stereo not drawn),–,"inconclusive: 2.24 µM [activator, partial curve, poor fit]"
O=C(COc1cccnc1[N+](=O)[O-])N1CCC(Cc2ccccc2)CC1,–,"inconclusive: 35.5 µM [inhibitor, single point]"
O=C(CCCc1ccccc1)Nc1nnc(C(F)(F)F)s1,inactive: -9.17% [at 46.1 µM],–
Cc1ccc(-c2nc(NC(=O)c3ccc(S(=O)(=O)N(CCC#N)CCC#N)cc3)sc2-c2ccccc2)cc1,–,"inconclusive: 7.08 µM [activator, partial curve, poor fit]"
COC(=O)[C@@]1(Cc2ccc(OC)cc2)[C@H]2c3cc(C(=O)N(C)C)[nH]c3C[C@H]2CN1C(=O)c1ccccc1,inactive: 12.6%,–
Cc1nc2sccn2c(=O)c1CCN1CCC(=C(c2ccc(F)cc2)c2ccc(F)cc2)CC1,–,active: 20 µM
CC1CCCCN1S(=O)(=O)c1ccc(C(=O)Nc2ccccc2-c2nc3ccccc3[nH]2)cc1 (stereo not drawn),–,"inconclusive: 7.94 µM [inhibitor, partial curve, poor fit]"
Cc1cccc(C(=O)OCC(=O)N2CCCCCC2)c1C,–,"inconclusive: 3.55 µM [activator, partial curve, poor fit]"
COc1ccc2[nH]c(=O)c(CNc3cc(C)ccc3C)cc2c1,–,"inconclusive: 20.6 µM [inhibitor, single point]"
CCCn1c(N)c(C(=O)CSc2nc(C3CC3)n(-c3ccccc3)n2)c(=O)[nH]c1=O,inactive: -18.5%,–
O=C(CSc1ccccc1)Nc1ccc(Cl)c(S(=O)(=O)N2CCOCC2)c1,–,"inconclusive: 11.2 µM [inhibitor, partial curve, poor fit]"
NC(=O)C1CCN(C(=O)C2CCC(=O)N(Cc3ccc(Cl)cc3)C2)CC1 (stereo not drawn),inactive: 11.2%,–
Cc1cccn2c(=O)c(/C=N/O)c(N3CCCC3)nc12,inactive: -0.15%,–
CC[N+](CC)(CCO)CCCN1C(=O)C2CC=C(Cl)CC2C1=O (stereo not drawn),inactive: 0.0111% [at 46.1 µM],–
CC1Cc2ccccc2N1C(=O)c1cccnc1 (stereo not drawn),inactive: 13.7%,–
COc1ccc(CNC(=O)c2cc(-c3cccc(Cl)c3)on2)cc1,inactive: -2.97% [at 46.1 µM],–
CCCCc1nc2ccccc2n2c(-c3ccc(OC)cc3)c3c(=O)n(C)c(=O)n(C)c3c12,inactive: 30.5% [at 46.1 µM],–
CCCCOP(=O)(c1ccc(N(C)C)cc1)C(O)c1ccc(OC)c(OC)c1 (stereo not drawn),inactive: 13.7% [at 46.1 µM],–
Cc1ccc(N(CC(=O)N=Nc2c(O)[nH]c3ccccc23)S(C)(=O)=O)c(C)c1,–,"inconclusive: 1.26 µM [activator, single point]"
COc1cccc(C(=O)OCC(=O)NCC2CCCO2)c1 (stereo not drawn),–,"inconclusive: 3.98 µM [activator, full curve, poor fit]"
C/C(N)=C(/C#N)C(=O)COC(=O)c1cc(-c2ccc(Br)cc2)nc2ccccc12,–,"inconclusive: 35.5 µM [inhibitor, single point] and inconclusive: 17.8 µM [inhibitor, partial curve, poor fit]"
N#CCCn1cc(C(=O)Nc2ccccc2Br)c(-c2cc3ccccc3o2)n1,–,"inconclusive: 22.4 µM [inhibitor, single point]"
